Common to all, as to test: proximity ligation; Duolink PLA on fixed, permeabilized L6-GLUT4myc myoblasts; endogenous proteins detected with pairs of primary antibodies; cells untreated or treated with 100 nM insulin (30 min) or 1 uM ionomycin (10 min), with or without the exocyst inhibitor ES2; signal-to-nuclei ratios
In experiment [1] the target is exocyst subunit EXOC5 (rat (endogenous in L6-GLUT4myc)) (UniProt P97878).
Experiment [2] deals with FFA translocase CD36 (cluster of differentiation 36) (rat (endogenous in L6-GLUT4myc)) (UniProt Q07969).
The target in experiment [3] is exocyst subunit EXOC7 (rat (endogenous in L6-GLUT4myc)) (UniProt O54922).

Chains of the proteins cited; added tags and fusions are not shown.
UniProt P97878: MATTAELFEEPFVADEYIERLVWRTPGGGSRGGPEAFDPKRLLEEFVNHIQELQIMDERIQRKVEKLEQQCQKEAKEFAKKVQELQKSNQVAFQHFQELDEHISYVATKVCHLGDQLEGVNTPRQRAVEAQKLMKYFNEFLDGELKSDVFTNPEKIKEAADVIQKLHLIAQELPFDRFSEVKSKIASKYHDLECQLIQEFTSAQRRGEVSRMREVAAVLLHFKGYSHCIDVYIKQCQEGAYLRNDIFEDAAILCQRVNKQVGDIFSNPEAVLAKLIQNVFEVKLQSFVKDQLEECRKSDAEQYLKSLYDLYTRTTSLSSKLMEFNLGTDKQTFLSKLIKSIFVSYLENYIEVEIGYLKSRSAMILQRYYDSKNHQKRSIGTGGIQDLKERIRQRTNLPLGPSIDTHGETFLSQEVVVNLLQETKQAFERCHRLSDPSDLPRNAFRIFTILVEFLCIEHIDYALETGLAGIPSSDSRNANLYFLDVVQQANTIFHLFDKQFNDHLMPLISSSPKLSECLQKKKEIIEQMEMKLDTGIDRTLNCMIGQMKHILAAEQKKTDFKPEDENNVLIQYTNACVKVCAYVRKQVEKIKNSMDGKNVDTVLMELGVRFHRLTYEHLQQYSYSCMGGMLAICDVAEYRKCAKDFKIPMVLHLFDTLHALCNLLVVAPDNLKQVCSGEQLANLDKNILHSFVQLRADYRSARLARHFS
UniProt Q07969: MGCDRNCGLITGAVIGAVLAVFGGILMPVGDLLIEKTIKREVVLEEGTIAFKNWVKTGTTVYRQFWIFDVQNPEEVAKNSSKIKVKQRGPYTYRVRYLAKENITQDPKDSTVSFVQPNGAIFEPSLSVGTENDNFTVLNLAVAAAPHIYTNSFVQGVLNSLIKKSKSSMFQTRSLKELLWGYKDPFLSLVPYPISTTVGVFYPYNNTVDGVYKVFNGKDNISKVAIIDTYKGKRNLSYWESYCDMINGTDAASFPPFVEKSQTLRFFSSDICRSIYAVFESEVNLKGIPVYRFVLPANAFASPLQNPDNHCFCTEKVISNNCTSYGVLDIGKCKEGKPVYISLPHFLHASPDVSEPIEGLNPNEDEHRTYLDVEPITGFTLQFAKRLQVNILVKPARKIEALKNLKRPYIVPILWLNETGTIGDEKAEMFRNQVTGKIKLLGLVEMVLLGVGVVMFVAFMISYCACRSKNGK
UniProt O54922: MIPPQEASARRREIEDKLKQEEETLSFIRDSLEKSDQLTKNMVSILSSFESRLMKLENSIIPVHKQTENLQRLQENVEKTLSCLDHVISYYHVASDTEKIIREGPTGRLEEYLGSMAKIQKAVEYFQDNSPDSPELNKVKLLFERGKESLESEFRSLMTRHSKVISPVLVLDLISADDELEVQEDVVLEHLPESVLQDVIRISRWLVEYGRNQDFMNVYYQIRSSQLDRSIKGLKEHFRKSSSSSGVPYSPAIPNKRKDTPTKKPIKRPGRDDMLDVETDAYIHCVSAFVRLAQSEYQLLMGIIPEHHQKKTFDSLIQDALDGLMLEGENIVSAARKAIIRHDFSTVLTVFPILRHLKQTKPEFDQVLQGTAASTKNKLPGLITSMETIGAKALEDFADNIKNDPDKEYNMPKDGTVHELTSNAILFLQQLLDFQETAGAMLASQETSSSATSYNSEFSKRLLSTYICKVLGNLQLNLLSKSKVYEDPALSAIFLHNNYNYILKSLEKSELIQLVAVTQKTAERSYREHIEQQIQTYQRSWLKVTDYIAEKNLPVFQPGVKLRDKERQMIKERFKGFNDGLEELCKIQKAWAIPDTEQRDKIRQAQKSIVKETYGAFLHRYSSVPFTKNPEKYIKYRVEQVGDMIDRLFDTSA
UniProt P61107: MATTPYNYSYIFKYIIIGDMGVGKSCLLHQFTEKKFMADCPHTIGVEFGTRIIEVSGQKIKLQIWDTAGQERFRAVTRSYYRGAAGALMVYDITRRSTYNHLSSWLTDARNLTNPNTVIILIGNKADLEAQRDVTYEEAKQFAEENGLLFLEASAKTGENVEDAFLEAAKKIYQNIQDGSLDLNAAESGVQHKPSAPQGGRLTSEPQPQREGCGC
UniProt P35280: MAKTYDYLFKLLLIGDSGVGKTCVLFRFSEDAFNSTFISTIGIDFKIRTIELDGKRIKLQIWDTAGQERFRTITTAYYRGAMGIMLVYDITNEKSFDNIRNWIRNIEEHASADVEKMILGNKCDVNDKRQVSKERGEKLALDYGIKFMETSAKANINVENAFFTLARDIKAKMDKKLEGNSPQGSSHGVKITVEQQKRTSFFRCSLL

Results are given in words; binding and its absence hold for the method and conditions named. In cells and extracts the contact can be indirect. Some results given as binding are weak or reduced against the parent protein; the word gives no strength.

Regarding Rab14 (from UniProt P61107 1-215), the binding entry in experiment [1] and in experiment [2] was “binds” each time.
Consider “exocyst subunit EXOC5 (from UniProt P97878 1-708)”, for which the binding entry in experiment [2] and in experiment [3] was “binds” in each case.
As to “small GTPase Rab8a (from UniProt P35280 1-207)”, the binding result in experiment [1] and in experiment [2] was “binds” each time.

The record behind these values is PMC9368548.
